{
  "source": "paper PMC2396500",
  "key": {"[1]": {"target": "T1, Arabidopsis CUL4 (Arabidopsis thaliana (endogenous in plants)) (UniProt Q8LGH4)", "T1 sequence": "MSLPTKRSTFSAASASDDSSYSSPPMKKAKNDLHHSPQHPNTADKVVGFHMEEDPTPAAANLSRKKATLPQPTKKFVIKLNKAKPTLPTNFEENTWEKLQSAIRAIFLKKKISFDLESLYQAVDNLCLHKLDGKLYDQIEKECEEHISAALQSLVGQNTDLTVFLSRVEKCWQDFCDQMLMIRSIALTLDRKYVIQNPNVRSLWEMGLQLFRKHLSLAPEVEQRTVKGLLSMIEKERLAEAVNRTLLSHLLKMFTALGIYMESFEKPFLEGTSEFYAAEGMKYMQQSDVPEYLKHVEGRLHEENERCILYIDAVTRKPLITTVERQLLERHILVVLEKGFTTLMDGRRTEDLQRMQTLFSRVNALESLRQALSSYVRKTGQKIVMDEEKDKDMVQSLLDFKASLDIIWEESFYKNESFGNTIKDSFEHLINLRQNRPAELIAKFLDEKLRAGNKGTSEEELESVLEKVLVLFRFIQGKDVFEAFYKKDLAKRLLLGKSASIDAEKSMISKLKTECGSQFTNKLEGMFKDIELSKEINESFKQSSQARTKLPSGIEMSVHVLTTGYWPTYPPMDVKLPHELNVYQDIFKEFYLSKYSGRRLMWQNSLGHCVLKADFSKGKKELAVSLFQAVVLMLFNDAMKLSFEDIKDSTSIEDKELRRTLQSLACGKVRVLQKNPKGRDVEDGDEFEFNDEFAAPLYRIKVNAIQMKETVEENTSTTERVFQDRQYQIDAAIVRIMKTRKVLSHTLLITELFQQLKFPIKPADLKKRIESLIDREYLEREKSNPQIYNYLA", "assay": "co-IP; extracts of WT, pOEX4GFP-DDB2 and ddb1a-2 pOEX2DDB1A-GFP Arabidopsis plants; immunoprecipitation with either anti-CUL4 or anti-GFP antibodies; WT plants as controls"}, "[2]": {"target": "T1, Arabidopsis CUL4 (Arabidopsis thaliana (endogenous in plants))", "assay": "co-IP; extracts of WT Arabidopsis plants; immunoprecipitation with anti-CUL4 antibody; CUL4 and DDB2 detected before and 15 min upon UV-C exposure"}, "[3]": {"target": "T2, Arabidopsis DDB1A (yeast two-hybrid fusion) (Arabidopsis thaliana) (UniProt Q9M0V3)", "T2 sequence": "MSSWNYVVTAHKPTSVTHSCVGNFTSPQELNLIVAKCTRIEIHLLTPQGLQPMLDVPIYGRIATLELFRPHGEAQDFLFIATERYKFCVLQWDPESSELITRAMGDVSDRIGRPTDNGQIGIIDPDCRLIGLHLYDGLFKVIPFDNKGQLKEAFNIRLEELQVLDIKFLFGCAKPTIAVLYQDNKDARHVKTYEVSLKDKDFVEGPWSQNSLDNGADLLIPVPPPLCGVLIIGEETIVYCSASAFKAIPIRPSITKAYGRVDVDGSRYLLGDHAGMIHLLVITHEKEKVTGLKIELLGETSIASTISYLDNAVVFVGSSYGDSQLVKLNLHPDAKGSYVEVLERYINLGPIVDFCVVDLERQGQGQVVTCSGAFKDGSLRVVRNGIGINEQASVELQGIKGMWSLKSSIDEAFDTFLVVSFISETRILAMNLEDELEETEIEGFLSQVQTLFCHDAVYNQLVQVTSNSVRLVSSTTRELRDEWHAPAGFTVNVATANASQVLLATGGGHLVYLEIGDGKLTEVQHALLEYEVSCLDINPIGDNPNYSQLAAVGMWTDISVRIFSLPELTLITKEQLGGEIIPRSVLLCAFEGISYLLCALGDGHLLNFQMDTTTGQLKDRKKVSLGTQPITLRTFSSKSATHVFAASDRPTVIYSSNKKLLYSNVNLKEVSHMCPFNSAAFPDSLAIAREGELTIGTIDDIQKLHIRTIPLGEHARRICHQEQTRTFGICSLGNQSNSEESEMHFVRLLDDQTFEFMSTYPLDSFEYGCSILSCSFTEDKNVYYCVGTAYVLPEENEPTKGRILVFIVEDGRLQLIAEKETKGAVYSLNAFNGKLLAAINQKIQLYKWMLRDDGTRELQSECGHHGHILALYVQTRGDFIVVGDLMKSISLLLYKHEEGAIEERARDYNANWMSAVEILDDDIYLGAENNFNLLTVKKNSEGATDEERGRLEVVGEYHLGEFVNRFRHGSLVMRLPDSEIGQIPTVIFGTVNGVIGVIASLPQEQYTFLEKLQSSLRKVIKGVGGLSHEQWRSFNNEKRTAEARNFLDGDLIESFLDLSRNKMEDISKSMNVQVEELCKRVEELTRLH", "assay": "two-hybrid; yeast two-hybrid; no auto-activation by the single plasmids on LTA medium"}},
  "note": "These are yes or no findings as the source states them, for the method shown. For some assays here: Binding seen in cells or lysates may run through a third protein. Some entries that bind do so weakly or less than the wild type. For some assays here: Tags and fused reporters may be left off the sequences shown.",
  "data": [
    {"binder": "DDB1A-GFP fusion protein (protein, UniProt Q9M0V3 1-1088) MSSWNYVVTAHKPTSVTHSCVGNFTSPQELNLIVAKCTRIEIHLLTPQGLQPMLDVPIYGRIATLELFRPHGEAQDFLFIATERYKFCVLQWDPESSELITRAMGDVSDRIGRPTDNGQIGIIDPDCRLIGLHLYDGLFKVIPFDNKGQLKEAFNIRLEELQVLDIKFLFGCAKPTIAVLYQDNKDARHVKTYEVSLKDKDFVEGPWSQNSLDNGADLLIPVPPPLCGVLIIGEETIVYCSASAFKAIPIRPSITKAYGRVDVDGSRYLLGDHAGMIHLLVITHEKEKVTGLKIELLGETSIASTISYLDNAVVFVGSSYGDSQLVKLNLHPDAKGSYVEVLERYINLGPIVDFCVVDLERQGQGQVVTCSGAFKDGSLRVVRNGIGINEQASVELQGIKGMWSLKSSIDEAFDTFLVVSFISETRILAMNLEDELEETEIEGFLSQVQTLFCHDAVYNQLVQVTSNSVRLVSSTTRELRDEWHAPAGFTVNVATANASQVLLATGGGHLVYLEIGDGKLTEVQHALLEYEVSCLDINPIGDNPNYSQLAAVGMWTDISVRIFSLPELTLITKEQLGGEIIPRSVLLCAFEGISYLLCALGDGHLLNFQMDTTTGQLKDRKKVSLGTQPITLRTFSSKSATHVFAASDRPTVIYSSNKKLLYSNVNLKEVSHMCPFNSAAFPDSLAIAREGELTIGTIDDIQKLHIRTIPLGEHARRICHQEQTRTFGICSLGNQSNSEESEMHFVRLLDDQTFEFMSTYPLDSFEYGCSILSCSFTEDKNVYYCVGTAYVLPEENEPTKGRILVFIVEDGRLQLIAEKETKGAVYSLNAFNGKLLAAINQKIQLYKWMLRDDGTRELQSECGHHGHILALYVQTRGDFIVVGDLMKSISLLLYKHEEGAIEERARDYNANWMSAVEILDDDIYLGAENNFNLLTVKKNSEGATDEERGRLEVVGEYHLGEFVNRFRHGSLVMRLPDSEIGQIPTVIFGTVNGVIGVIASLPQEQYTFLEKLQSSLRKVIKGVGGLSHEQWRSFNNEKRTAEARNFLDGDLIESFLDLSRNKMEDISKSMNVQVEELCKRVEELTRLH", "values": [
      {"measurement": "binding", "setting": "[1]", "result": "binds"}
    ]},
    {"binder": "GFP-DDB2 fusion protein (protein, UniProt Q6NQ88 1-557) MSSTRSRRKRDPEIVIARDTDSELSSSEEEEEEEDNYPFSESEEEDEAVKNGGKIELEKNKAKGKAPITVKLIKKVCKVCKQPGHEAGFKGATYIDCPMKPCFLCKMPGHTTMSCPHRVVTDHGILPTSHRNTKNPIDFVFKRQLQPRIPPIKPKYVIPDQVHCAVIRYHSRRVTCLEFHPTKNNILLSGDKKGQIGVWDFGKVYEKNVYGNIHSVQVNNMRFSPTNDDMVYSASSDGTIGYTDLETGTSSTLLNLNPDGWQGANSWKMLYGMDINSEKGVVLAADNFGFLHMIDHRTNNSTGEPILIHKQGSKVCGLDCNPVQPELLLSCGNDHFARIWDMRKLQPKASLHDLAHKRVVNSAYFSPSSGTKILTTCQDNRIRIWDSIFGNLDLPSREIVHSNDFNRHLTPFKAEWDPKDTSESLIVIGRYISENYNGTALHPIDFIDASNGQLVAEVMDPNITTITPVNKLHPRDDVLASGSSRSLFIWRPQDNTEMVEEKKDKKIIICYGDSKKKGKKQKRGSDDEDDEDDIFSSKGKNIKVNKYQAKTTKKTKT", "values": [
      {"measurement": "binding", "setting": "[1]", "result": "binds"}
    ]},
    {"binder": "Arabidopsis DDB2 (endogenous) (protein, UniProt Q6NQ88 1-557) MSSTRSRRKRDPEIVIARDTDSELSSSEEEEEEEDNYPFSESEEEDEAVKNGGKIELEKNKAKGKAPITVKLIKKVCKVCKQPGHEAGFKGATYIDCPMKPCFLCKMPGHTTMSCPHRVVTDHGILPTSHRNTKNPIDFVFKRQLQPRIPPIKPKYVIPDQVHCAVIRYHSRRVTCLEFHPTKNNILLSGDKKGQIGVWDFGKVYEKNVYGNIHSVQVNNMRFSPTNDDMVYSASSDGTIGYTDLETGTSSTLLNLNPDGWQGANSWKMLYGMDINSEKGVVLAADNFGFLHMIDHRTNNSTGEPILIHKQGSKVCGLDCNPVQPELLLSCGNDHFARIWDMRKLQPKASLHDLAHKRVVNSAYFSPSSGTKILTTCQDNRIRIWDSIFGNLDLPSREIVHSNDFNRHLTPFKAEWDPKDTSESLIVIGRYISENYNGTALHPIDFIDASNGQLVAEVMDPNITTITPVNKLHPRDDVLASGSSRSLFIWRPQDNTEMVEEKKDKKIIICYGDSKKKGKKQKRGSDDEDDEDDIFSSKGKNIKVNKYQAKTTKKTKT", "values": [
      {"measurement": "binding", "setting": "[2]", "result": "binds"}
    ]},
    {"binder": "mutated Arabidopsis DDB2 protein DDB2 (R343H) (yeast two-hybrid fusion) (protein, UniProt Q6NQ88 1-557) MSSTRSRRKRDPEIVIARDTDSELSSSEEEEEEEDNYPFSESEEEDEAVKNGGKIELEKNKAKGKAPITVKLIKKVCKVCKQPGHEAGFKGATYIDCPMKPCFLCKMPGHTTMSCPHRVVTDHGILPTSHRNTKNPIDFVFKRQLQPRIPPIKPKYVIPDQVHCAVIRYHSRRVTCLEFHPTKNNILLSGDKKGQIGVWDFGKVYEKNVYGNIHSVQVNNMRFSPTNDDMVYSASSDGTIGYTDLETGTSSTLLNLNPDGWQGANSWKMLYGMDINSEKGVVLAADNFGFLHMIDHRTNNSTGEPILIHKQGSKVCGLDCNPVQPELLLSCGNDHFARIWDMHKLQPKASLHDLAHKRVVNSAYFSPSSGTKILTTCQDNRIRIWDSIFGNLDLPSREIVHSNDFNRHLTPFKAEWDPKDTSESLIVIGRYISENYNGTALHPIDFIDASNGQLVAEVMDPNITTITPVNKLHPRDDVLASGSSRSLFIWRPQDNTEMVEEKKDKKIIICYGDSKKKGKKQKRGSDDEDDEDDIFSSKGKNIKVNKYQAKTTKKTKT", "values": [
      {"measurement": "binding", "setting": "[3]", "result": "binds"}
    ]},
    {"binder": "Arabidopsis DDB2 (yeast two-hybrid fusion) (protein, UniProt Q6NQ88 1-557) MSSTRSRRKRDPEIVIARDTDSELSSSEEEEEEEDNYPFSESEEEDEAVKNGGKIELEKNKAKGKAPITVKLIKKVCKVCKQPGHEAGFKGATYIDCPMKPCFLCKMPGHTTMSCPHRVVTDHGILPTSHRNTKNPIDFVFKRQLQPRIPPIKPKYVIPDQVHCAVIRYHSRRVTCLEFHPTKNNILLSGDKKGQIGVWDFGKVYEKNVYGNIHSVQVNNMRFSPTNDDMVYSASSDGTIGYTDLETGTSSTLLNLNPDGWQGANSWKMLYGMDINSEKGVVLAADNFGFLHMIDHRTNNSTGEPILIHKQGSKVCGLDCNPVQPELLLSCGNDHFARIWDMRKLQPKASLHDLAHKRVVNSAYFSPSSGTKILTTCQDNRIRIWDSIFGNLDLPSREIVHSNDFNRHLTPFKAEWDPKDTSESLIVIGRYISENYNGTALHPIDFIDASNGQLVAEVMDPNITTITPVNKLHPRDDVLASGSSRSLFIWRPQDNTEMVEEKKDKKIIICYGDSKKKGKKQKRGSDDEDDEDDIFSSKGKNIKVNKYQAKTTKKTKT", "values": [
      {"measurement": "binding", "setting": "[3]", "result": "binds"}
    ]}
  ]
}
